# Measured data: PubChem BioAssay AID1259405 (NCATS, 2018)
# Test: 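Mouse-designed siRNAs used to find CHO productivity engineering targets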 (primary screen)
# Cells: Chinese hamster CHO-K1 ovary cells with stable secreted eGFP expression
# Knock-down reagent: single siRNA against mouse genes, 0.8 pmol siRNA per well (2 µl of 400 nM stock)
# Time to read-out: 3 days
# Measurement: 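Percent of the per-plate non-targeting control median for intracellular GFP per well by laser scanning cytometry and for cell viability by ATP luminescence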
# Direction: GFP, % of control: higher = more GFP per well, higher productivity; viability (ATP), % of control: higher = more viable cells (more ATP)
# Hit rule: 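Called active when intracellular GFP, relative to negative control, is at or above 120%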
# In all, the deposit lists about 50,000 reagents; this is a part drawn at random. About 4,000 of them (8%) count as active. 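Mouse siRNA library applied to hamster cells; one well for each siRNA.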 A number with no mark means an inactive call. Reagents against one gene are numbered here.
Target gene,reagent no.,"GFP, % of control","viability (ATP), % of control"
Or4k5,1,157 (active),58.9
Or4k5,2,46.9,31
Or4k5,3,69.9,105
Tac1,1,67.4,76.4
Tac1,2,74.3,68.1
Tac1,3,84.4,119
Cldn12,1,78.8,40.3
Cldn12,2,79.6,98.4
Cldn12,3,77.5,95
Npy2r,1,50.8,64.8
Npy2r,2,77,60.7
Npy2r,3,76.7,65.6
Rrp36,1,45.1,42.1
Rrp36,2,73.8,86.4
Rrp36,3,105,101
Tas2r140,1,93.4,66.2
Tas2r140,2,54.3,66.2
Tas2r140,3,65.9,84.4
Ehmt1,1,94,69
Ehmt1,2,88.1,97.2
Ehmt1,3,40.8,66.6
Irak3,1,88.6,57.6
Acot1,1,102,61.4
Acot1,2,121 (active),71.1
Acot1,3,125 (active),109
Hsd17b12,1,76.1,66.8
Hsd17b12,2,57.4,67.9
Hsd17b12,3,86.2,72.3
Dera,1,76.5,86.1
Dera,2,102,95.9
Dera,3,112,79.6
Tbl1x,1,99.9,90
Tbl1x,2,63.1,71.4
Tbl1x,3,98.5,99

Look-ups from above:
Under “viability (ATP), % of control”, Dera #2 reads 95.9
Result for Acot1 #3 under “viability (ATP), % of control”: 109 (active)
Tac1 #3, viability (ATP), % of control → 119
Cldn12 #1, viability (ATP), % of control → 40.3
Result for Cldn12 #3 under “GFP, % of control”: 77.5
